Measured values from PubChem BioAssay (Tox21).
Values joined by “and” are separate entries in the source; they are usually repeats but may differ in a detail not shown here. Equal values may be shown once. Most of the hits are listed elsewhere, so they are rarer here than in the full data. Records with an inconclusive call do not appear. Active and inactive are the calls of the source. Calls come from the whole dose curve; as a rule, active = well fitted cell-killing curve with a large enough effect in the repeat runs; inconclusive = weak or mixed curves, or effect the other way; inactive = flat fitted curve, though single readings scatter.

Experiments:
[1] = cAMP Responsive Elements (CRE) small molecule antagonists, cell-based qHTS assay: qHTS cell viability counter screen (AID 2060913); details: CRE-bla HEK293T viability, CellTiter-Glo luminescence, 5 h; at 92.4 µM (top of the series); note: nearly all actives have a fitted effect of over 40% in size
Description: U.S. Tox21 Program National Center for Advancing Translational Sciences [NCATS] Division of Preclinical Innovation [DPI] U.S. Environmental Protection Agency [EPA] National Institutes of Environmental Health Sciences [NIEHS] National Toxicology Program [NTP] U.S. Food and Drug Administration [FDA] Tox21 Assay Overview: CREB (cyclic-AMP Responsive Element Binding Protein) is a cellular transcription factor. It binds to certain DNA sequences called cAMP Responsive Elements (CRE) and regulates the transcription of the genes. […] This cell line can be used to find agonists/antagonists of the cyclic AMP signaling pathway. The activation of the report gene under culture conditions can be detected by fluorescence intensity. This cell line has been used to screen the Tox21 10K compound library to identify agonists that induce oxidative stress. The cytotoxicity of the Tox21 compound library against the CRE-bla cell line was tested in parallel by measuring the cell viability using CellTiter-Glo assay (Promega, Madison, WI) in the same wells.
Tox21 Assay Protocol Summary: CRE-bla Hek 293T cells were suspended in assay medium (DMEM containing 10% dialyzed FBS, 0.1 mM NEAA, 1 mM sodium pyruvate and 25 mM HEPES) and dispensed at 2,000 cells/4 uL /well into 1536-well black wall/clear bottom plates using a Multidrop Combi (ThermoFisher Scientific, Waltham, MA) dispenser. After the assay plates were incubated at 37 C/5% CO2 for 18 hrs, 23 nL of compounds dissolved in DMSO, positive controls or DMSO only was transferred to the assay plate by a pintool workstation (Kalypsys, San Diego, CA), followed by addition of 1 uL of 1.25uM NKH477 (0.25 uM as final concentration) in assay medium using a Flying Reagent Dispenser (Aurora Discovery, San Diego, CA). The plates were incubated at 37 C and 5% CO2 for 3 hrs. Then 1 uL of LiveBLAzer B/G FRET substrate (Invitrogen, Carlsbad, CA) was added to each well using Bioraptr Flying Reagent Dispenser (FRD, Aurora Discovery, San Diego, CA). The plates were incubated at room temperature for 2 h, then fluorescence intensities were measured using an Envision plate reader (PerkinElmer, Shelton, CT) at Excitation 405nm, Emission 460nm and 530nm. The % activity was determined from the ratio of 460nm/530nm. For cell viability readout that measures cytotoxicity, 4 uL /well of CellTiter-Glo reagent was added into the assay plates using Bioraptr FRD. After 30 min incubation at room temperature, the luminescence intensity in the assay plates was measured using a ViewLux (PerkinElmer, Shelton, CT) plate reader.

[2] = cAMP Responsive Elements (CRE) small molecule agonists, cell-based qHTS assay: qHTS cell viability counter screen (AID 2060914); details: CRE-bla HEK293T viability, CellTiter-Glo luminescence, 5 h; at 92.4 µM (top of the series); note: nearly all actives have a fitted effect of over 50% in size
In short: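 Cytotoxicity was measured as ATP luminescence (CellTiter-Glo, 30 min at room temperature) in the same wells as the CRE-bla FRET read-out. HEK293T CRE-bla cells had 3 h compound exposure at 37C/5% CO2.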
% is set by controls: 0 for no effect and ±100 for the full control effect.

| Structure (SMILES) | viability change, negative = cytotoxic [1] | activity change, negative = cytotoxicity [2] |
| --- | --- | --- |
| CC(=O)N(C)C | inactive: 0.574% and inactive: -8.9% | inactive: 1.57% and inactive: 0.419% |
| COc1ccc2ccccc2c1 | inactive: -5.65% | inactive: -10.2% |
| CCCCCCCC1CCC(=O)O1 (stereo not given) | inactive: 1.48% | inactive: 6.63% |
| O=C1Cc2ccccc2C1 | inactive: 21.4% | inactive: -7.4% |
| CS(=O)(=O)c1ccc([C@@H](CC2CCCC2)C(=O)Nc2cnccn2)cc1Cl | inactive: -13.9% | inactive: -4.17% |
